No constants are given. Whether binding was seen depends on the method and setting. In cells and extracts the contact can be indirect. Some results given as binding are weak or reduced against the parent protein; the word gives no strength. For part of these data: Sequences can lack the tags named with a protein.
Legend:
[1] = target: KPNA1-myc (importin subunit alpha 5) (UniProt Q60960); assay: co-IP; lysates of transfected cells (1 μg of each plasmid) in IP lysis buffer (20 mM Tris-HCl, 150 mM NaCl, 1 mM EDTA, 1% Triton X-100); antibody (anti-MYC among those listed) on Protein G Sepharose, 2 h at 4°C; Western blot
[2] = target: KPNA1 (endogenous, mouse P10 cortex) (mouse (endogenous in P10 cortex)) (UniProt Q60960); assay: co-IP; P10 mouse cortical lysates in IP lysis buffer; IPs with anti-PCDH19, anti-KPNA1 and IgG on Protein G Sepharose, 2 h at 4°C; Western blot

The chains behind the UniProt entries cited, without tags or fusion partners.
UniProt Q60960: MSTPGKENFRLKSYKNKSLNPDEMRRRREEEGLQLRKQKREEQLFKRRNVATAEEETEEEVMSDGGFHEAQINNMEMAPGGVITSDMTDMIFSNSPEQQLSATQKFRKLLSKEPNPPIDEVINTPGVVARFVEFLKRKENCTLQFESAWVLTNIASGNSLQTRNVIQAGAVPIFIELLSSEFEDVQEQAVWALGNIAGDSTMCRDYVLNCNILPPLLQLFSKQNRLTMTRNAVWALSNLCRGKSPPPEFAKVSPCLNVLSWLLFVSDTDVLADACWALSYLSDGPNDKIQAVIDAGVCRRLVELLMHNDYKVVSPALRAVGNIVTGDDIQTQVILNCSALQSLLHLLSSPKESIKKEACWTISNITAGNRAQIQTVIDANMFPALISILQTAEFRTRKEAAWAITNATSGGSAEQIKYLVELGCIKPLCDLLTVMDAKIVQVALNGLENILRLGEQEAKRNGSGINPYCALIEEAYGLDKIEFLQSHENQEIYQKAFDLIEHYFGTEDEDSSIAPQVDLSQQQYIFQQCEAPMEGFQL

| Binder | binding [1] | binding [2] |
| --- | --- | --- |
| PCDH19-FL-HA (full-length mouse Protocadherin 19 with a C-terminal HA tag) (protein, UniProt Q80TF3 22-1145) LINLKYSVEEEQRAGTVIANVAKDAREAGFALDPRQASAFRVVSNSAPHLVDINPSSGLLVTKQKIDRDLLCRQSPKCIISLEVMSSSMEICVIKVEIKDLNDNAPSFPAAQIELEISEAASPGTRIPLDSAYDPDSGSFGVQTYELTPNELFGLEIKTRGDGSRFAELVVEKSLDRETQSHYSFRITALDGGDPPHMGTVGLSIKVTDSNDNNPVFGESTYSVSVPENSPPNTPVIRLNASDPDEGTNGQVVYSFYGYVNDRTRELFQIDPHSGLVTVTGALDYEEGHVYELDVQAKDLGPNSIPAHCKVTVSVLDTNDNPPIINLLSVNSELVEVSESAPPGYVIALVRVSDRDSGLNGRVQCRLLGNVPFRLQEYESFSTILVDGRLDREQHDQYNLTIQARDSGVPMLQSAKSFTVRITDENDNHPHFSKPYYQVIVQENNTPGAYLLSVSARDPDMGLNGSVSYQIVPSQVRDMPVFTYVSINPNSGDIYALRSFNHEQTKAFEFKVLAKDGGLPSLQSNATVRVIILDVNDNTPVITAPPLINGTAEVYIPRNSGIGYLVTVVKADDYDEGENGRVTYDMTEGDRGFFEIDQVNGEVRTTRTFNENSKPSYELIVVAHDHGKTSLSASALVLIYLSPALDAQESMGSVNLSLIFIIALGSIAGILFVTMIFVAIKCKRDNKEIRTYNCSNCLTITCLLGCFIKGQNSKCLHCISVSPNSEEQDKKAEEKVSLRGKRIAEYSYGHQKKSSKKKKISKNDIRLVPRDVEETDKMNVVSCSSLTSSLNYFDYHQQTLPLGCRRSESTFLNVENQNTRNTTASHIYHHSFNSQGPQQPDLIINGVPLPETENYSFDSNYVNSRAHLIKSSSTFKDLEGNSLKDSGHEESDQTDSEHDVQRSLYCDTAVNDVLNTSVTSMGSQMPDHDQNEGFHCREECRILGHSDRCWMPRNPMPTRSKSPEHVRNIIALSIEATAADVEAYDDCGPTKRTFATFGKDVSSHRAEERPILKGKRTVDVTICSPKVNSAIREAGNGCEAISPVTSPLHLKSPLPTKPSISYTVALAPPAHDLEHHANSGASRPSEAEPRGADNEKVMHEVNPIRKDGRDKESPSVKRLKDIVL | binds |  |
| PCDH19-ICD-HA (intracellular domain of mouse Protocadherin 19, 700-1145 aa, with an added methionine and a C-terminal HA tag) (domain or fragment, UniProt Q80TF3 700-1145) MAIKCKRDNKEIRTYNCSNCLTITCLLGCFIKGQNSKCLHCISVSPNSEEQDKKAEEKVSLRGKRIAEYSYGHQKKSSKKKKISKNDIRLVPRDVEETDKMNVVSCSSLTSSLNYFDYHQQTLPLGCRRSESTFLNVENQNTRNTTASHIYHHSFNSQGPQQPDLIINGVPLPETENYSFDSNYVNSRAHLIKSSSTFKDLEGNSLKDSGHEESDQTDSEHDVQRSLYCDTAVNDVLNTSVTSMGSQMPDHDQNEGFHCREECRILGHSDRCWMPRNPMPTRSKSPEHVRNIIALSIEATAADVEAYDDCGPTKRTFATFGKDVSSHRAEERPILKGKRTVDVTICSPKVNSAIREAGNGCEAISPVTSPLHLKSPLPTKPSISYTVALAPPAHDLEHHANSGASRPSEAEPRGADNEKVMHEVNPIRKDGRDKESPSVKRLKDIVL | binds |  |
| PCDH19 (endogenous, mouse P10 cortex) (protein, UniProt Q80TF3 22-1145) LINLKYSVEEEQRAGTVIANVAKDAREAGFALDPRQASAFRVVSNSAPHLVDINPSSGLLVTKQKIDRDLLCRQSPKCIISLEVMSSSMEICVIKVEIKDLNDNAPSFPAAQIELEISEAASPGTRIPLDSAYDPDSGSFGVQTYELTPNELFGLEIKTRGDGSRFAELVVEKSLDRETQSHYSFRITALDGGDPPHMGTVGLSIKVTDSNDNNPVFGESTYSVSVPENSPPNTPVIRLNASDPDEGTNGQVVYSFYGYVNDRTRELFQIDPHSGLVTVTGALDYEEGHVYELDVQAKDLGPNSIPAHCKVTVSVLDTNDNPPIINLLSVNSELVEVSESAPPGYVIALVRVSDRDSGLNGRVQCRLLGNVPFRLQEYESFSTILVDGRLDREQHDQYNLTIQARDSGVPMLQSAKSFTVRITDENDNHPHFSKPYYQVIVQENNTPGAYLLSVSARDPDMGLNGSVSYQIVPSQVRDMPVFTYVSINPNSGDIYALRSFNHEQTKAFEFKVLAKDGGLPSLQSNATVRVIILDVNDNTPVITAPPLINGTAEVYIPRNSGIGYLVTVVKADDYDEGENGRVTYDMTEGDRGFFEIDQVNGEVRTTRTFNENSKPSYELIVVAHDHGKTSLSASALVLIYLSPALDAQESMGSVNLSLIFIIALGSIAGILFVTMIFVAIKCKRDNKEIRTYNCSNCLTITCLLGCFIKGQNSKCLHCISVSPNSEEQDKKAEEKVSLRGKRIAEYSYGHQKKSSKKKKISKNDIRLVPRDVEETDKMNVVSCSSLTSSLNYFDYHQQTLPLGCRRSESTFLNVENQNTRNTTASHIYHHSFNSQGPQQPDLIINGVPLPETENYSFDSNYVNSRAHLIKSSSTFKDLEGNSLKDSGHEESDQTDSEHDVQRSLYCDTAVNDVLNTSVTSMGSQMPDHDQNEGFHCREECRILGHSDRCWMPRNPMPTRSKSPEHVRNIIALSIEATAADVEAYDDCGPTKRTFATFGKDVSSHRAEERPILKGKRTVDVTICSPKVNSAIREAGNGCEAISPVTSPLHLKSPLPTKPSISYTVALAPPAHDLEHHANSGASRPSEAEPRGADNEKVMHEVNPIRKDGRDKESPSVKRLKDIVL |  | binds |
